Assay results: patent US20050042256A1, “Lipid blends and food products containing oleic fatty acid and omega-6 fatty acids, designed to increase the intramyocellular lipid level” (priority 2001, published 2005)
At least one structure is not confirmed: it was looked up by name or label, or the drawing left a doubt.

Tested on: Human skeletal muscle cells
Assay: IMCL (triacylglycerol) accumulation in muscle cells incubated with fatty acids
Assay type: cell-based
Details: 0.5 mM FFA salt bound to albumin, DMEM + 25 mM glucose, 24 hrs at 37° C; FIGURE 1
Procedure: Human skeletal muscle cells were used as a model to test the effect that different fatty acids (as precursors) may have on the extent of muscle triglyceride storage.
Primary cultures were initiated from a bank of satellite cells of muscle biopsies obtained from patients free of muscle disease. Aneural muscle cultures were established in a monolayer, then they were grown in a DMEM-M-199 medium, 3:1, supplemented with 10% fetal bovine serum, 10 μg/ml insulin, 2 mM glutamine, 25 ng/ml fibroblast growth factor, and 10 ng/ml epidermal growth factor. Immediately after myoblast fusion, cells were rinsed in Hank's balanced salt solution and a medium devoid of FGF, EGF, and glutamine was added. Muscle cultures were maintained in this medium for up to 4 weeks.
Cells were incubated with DMEM+glucose (25 mM)+0.5 mM FFA salt bound to albumin (in independent experiments for each FFA), for 24 hrs at 37° C. As examples for the fatty acids used in blend 1 (promoting IMCL storage), oleate (C18:1 cis), linoleate (C18:2 cis/cis), n-6 linoleate and n-3 linoleate. […]
After incubation, cell lipids were extracted according to the method of Bligh and Dyer (Can. J. Biochem Physiol 37: 911-917, 1959). […] Total triacylglycerol (i.e. IMCL) was measured with a Cobas-Bio autoanalyzer with a GPO-Trinder kit, with triolein resuspended in the extraction buffer as a standard. […]

CCCCCCCCCCCCCCCC(=O)O [palmitate]
accumulation / synthesis of IMCL (total triacylglycerol): moderate synthesis
